Results are given in words; binding and its absence hold for the method and conditions named. Binding seen in cells or lysates may run through a third protein. These calls come from enrichment with a bait or labelling near it, and not all partners need be listed. Sequences can lack the tags named with a protein.
B1: DIS3 (protein, UniProt Q9Y2L1 1-958)
chain: MLKSKTFLKKTRAGGVMKIVREHYLRDDIGCGAPGCAACGGAHEGPALEPQPQDPASSVCPQPHYLLPDTNVLLHQIDVLEDPAIRNVIVLQTVLQEVRNRSAPVYKRIRDVTNNQEKHFYTFTNEHHRETYVEQEQGENANDRNDRAIRVAAKWYNEHLKKMSADNQLQVIFITNDRRNKEKAIEEGIPAFTCEEYVKSLTANPELIDRLACLSEEGNEIESGKIIFSEHLPLSKLQQGIKSGTYLQGTFRASRENYLEATVWIHGDNEENKEIILQGLKHLNRAVHEDIVAVELLPKSQWVAPSSVVLHDEGQNEEDVEKEEETERMLKTAVSEKMLKPTGRVVGIIKRNWRPYCGMLSKSDIKESRRHLFTPADKRIPRIRIETRQASTLEGRRIIVAIDGWPRNSRYPNGHFVRNLGDVGEKETETEVLLLEHDVPHQPFSQAVLSFLPKMPWSITEKDMKNREDLRHLCICSVDPPGCTDIDDALHCRELENGNLEVGVHIADVSHFIRPGNALDQESARRGTTVYLCEKRIDMVPELLSSNLCSLKCDVDRLAFSCIWEMNHNAEILKTKFTKSVINSKASLTYAEAQLRIDSANMNDDITTSLRGLNKLAKILKKRRIEKGALTLSSPEVRFHMDSETHDPIDLQTKELRETNSMVEEFMLLANISVAKKIHEEFSEHALLRKHPAPPPSNYEILVKAARSRNLEIKTDTAKSLAESLDQAESPTFPYLNTLLRILATRCMMQAVYFCSGMDNDFHHYGLASPIYTHFTSPIRRYADVIVHRLLAVAIGADCTYPELTDKHKLADICKNLNFRHKMAQYAQRASVAFHTQLFFKSKGIVSEEAYILFVRKNAIVVLIPKYGLEGTVFFEEKDKPNPQLIYDDEIPSLKIEDTVFHVFDKVKVKIMLDSSNLQHQKIRMSLVEPQIPGISIPTDTSNMDLNGPKKKKMKLGK

By UniProt entry, the sequences of proteins in these tests, tags left out.
UniProt Q7Z739: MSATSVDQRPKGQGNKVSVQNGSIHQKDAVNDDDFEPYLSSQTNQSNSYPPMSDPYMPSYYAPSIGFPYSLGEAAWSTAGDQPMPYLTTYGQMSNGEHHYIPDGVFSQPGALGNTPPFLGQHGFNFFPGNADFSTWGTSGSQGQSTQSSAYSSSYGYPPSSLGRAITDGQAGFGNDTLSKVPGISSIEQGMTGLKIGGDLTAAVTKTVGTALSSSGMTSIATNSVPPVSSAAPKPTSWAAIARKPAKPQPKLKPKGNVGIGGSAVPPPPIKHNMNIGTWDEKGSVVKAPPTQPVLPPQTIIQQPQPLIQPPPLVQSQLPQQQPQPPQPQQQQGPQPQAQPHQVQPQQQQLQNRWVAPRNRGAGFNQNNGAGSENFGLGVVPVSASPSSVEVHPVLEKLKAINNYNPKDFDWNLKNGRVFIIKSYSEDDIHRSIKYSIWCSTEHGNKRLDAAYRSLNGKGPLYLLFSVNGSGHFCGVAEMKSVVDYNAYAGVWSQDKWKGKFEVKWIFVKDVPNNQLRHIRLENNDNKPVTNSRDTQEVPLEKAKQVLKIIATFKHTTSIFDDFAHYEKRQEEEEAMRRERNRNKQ

Legend:
[1] = target: T1, YFP-SA2^e32+ (YFP-tagged SA2 containing exon 32) (human) (UniProt Q8N3U4); experiment: affinity purification with mass spectrometry
T1 sequence: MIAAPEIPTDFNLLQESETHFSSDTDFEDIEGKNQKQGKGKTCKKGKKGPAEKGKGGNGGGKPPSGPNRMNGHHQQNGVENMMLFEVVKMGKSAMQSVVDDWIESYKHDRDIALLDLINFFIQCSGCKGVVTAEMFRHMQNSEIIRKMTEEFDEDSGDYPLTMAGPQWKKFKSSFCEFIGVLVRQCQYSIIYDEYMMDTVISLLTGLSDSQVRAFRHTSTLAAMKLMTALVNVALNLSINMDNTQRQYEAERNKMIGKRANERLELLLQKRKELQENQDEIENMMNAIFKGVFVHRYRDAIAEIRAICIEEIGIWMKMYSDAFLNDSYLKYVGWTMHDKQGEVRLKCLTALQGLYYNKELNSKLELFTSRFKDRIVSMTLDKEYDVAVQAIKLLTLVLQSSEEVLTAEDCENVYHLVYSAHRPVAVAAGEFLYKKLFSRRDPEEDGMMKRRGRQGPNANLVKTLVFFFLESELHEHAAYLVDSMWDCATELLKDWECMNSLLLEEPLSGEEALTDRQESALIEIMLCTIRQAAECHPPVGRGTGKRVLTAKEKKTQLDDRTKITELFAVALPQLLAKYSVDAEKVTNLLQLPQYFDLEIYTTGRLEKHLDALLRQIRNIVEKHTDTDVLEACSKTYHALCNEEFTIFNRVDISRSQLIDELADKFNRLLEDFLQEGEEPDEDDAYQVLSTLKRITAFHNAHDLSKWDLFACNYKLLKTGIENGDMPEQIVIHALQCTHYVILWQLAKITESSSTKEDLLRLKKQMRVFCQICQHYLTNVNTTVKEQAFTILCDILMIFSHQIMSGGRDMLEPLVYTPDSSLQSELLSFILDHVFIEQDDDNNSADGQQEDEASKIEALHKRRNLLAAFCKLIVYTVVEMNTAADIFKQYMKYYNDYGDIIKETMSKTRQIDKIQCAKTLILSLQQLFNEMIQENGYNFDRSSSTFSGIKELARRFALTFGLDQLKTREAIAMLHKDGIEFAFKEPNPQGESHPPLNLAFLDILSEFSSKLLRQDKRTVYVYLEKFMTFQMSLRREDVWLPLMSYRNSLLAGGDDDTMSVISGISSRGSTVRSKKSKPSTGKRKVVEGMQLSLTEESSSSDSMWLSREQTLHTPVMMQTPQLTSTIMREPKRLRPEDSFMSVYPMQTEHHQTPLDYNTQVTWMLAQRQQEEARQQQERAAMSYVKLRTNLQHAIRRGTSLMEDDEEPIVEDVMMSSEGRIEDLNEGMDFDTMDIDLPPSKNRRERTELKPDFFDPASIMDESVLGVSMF

[2] = target: T2, SA1 (Stromalin Antigen 1, STAG1) (human (endogenous in HCT116)) (UniProt Q8WVM7); experiment: affinity purification with mass spectrometry
T2 sequence: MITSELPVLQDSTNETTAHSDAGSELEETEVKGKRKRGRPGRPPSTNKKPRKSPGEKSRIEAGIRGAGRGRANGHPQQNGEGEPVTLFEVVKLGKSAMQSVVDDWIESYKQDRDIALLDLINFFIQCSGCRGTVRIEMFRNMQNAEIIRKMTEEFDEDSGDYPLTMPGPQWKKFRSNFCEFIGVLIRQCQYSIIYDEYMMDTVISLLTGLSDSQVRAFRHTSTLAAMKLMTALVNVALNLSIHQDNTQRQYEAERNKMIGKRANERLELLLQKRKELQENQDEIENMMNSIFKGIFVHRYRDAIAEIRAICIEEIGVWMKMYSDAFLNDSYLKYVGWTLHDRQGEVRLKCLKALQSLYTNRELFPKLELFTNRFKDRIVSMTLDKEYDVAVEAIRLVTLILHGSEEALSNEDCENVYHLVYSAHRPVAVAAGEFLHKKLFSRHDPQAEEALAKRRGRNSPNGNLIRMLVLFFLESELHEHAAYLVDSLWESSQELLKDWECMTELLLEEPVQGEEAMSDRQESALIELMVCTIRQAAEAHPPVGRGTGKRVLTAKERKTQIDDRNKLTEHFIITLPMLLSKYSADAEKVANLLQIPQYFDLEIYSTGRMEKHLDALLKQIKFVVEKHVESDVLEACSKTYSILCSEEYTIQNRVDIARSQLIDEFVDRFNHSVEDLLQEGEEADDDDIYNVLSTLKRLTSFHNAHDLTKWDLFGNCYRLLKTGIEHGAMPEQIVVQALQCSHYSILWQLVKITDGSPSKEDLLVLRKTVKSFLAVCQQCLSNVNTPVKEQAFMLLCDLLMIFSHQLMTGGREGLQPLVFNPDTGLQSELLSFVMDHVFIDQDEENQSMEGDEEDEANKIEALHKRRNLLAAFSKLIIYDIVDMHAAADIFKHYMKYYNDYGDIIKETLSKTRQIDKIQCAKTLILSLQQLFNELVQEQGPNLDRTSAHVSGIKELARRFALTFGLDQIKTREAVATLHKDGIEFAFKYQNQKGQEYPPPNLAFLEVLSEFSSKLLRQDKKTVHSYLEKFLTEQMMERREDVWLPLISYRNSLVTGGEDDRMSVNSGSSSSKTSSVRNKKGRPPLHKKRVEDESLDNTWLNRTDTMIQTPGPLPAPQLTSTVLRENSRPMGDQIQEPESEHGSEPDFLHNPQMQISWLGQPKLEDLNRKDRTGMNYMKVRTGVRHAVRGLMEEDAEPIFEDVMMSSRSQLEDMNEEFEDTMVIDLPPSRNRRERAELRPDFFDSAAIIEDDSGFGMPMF

Molecule | binding [1] | binding [2]
YTHDF3 (from UniProt Q7Z739 1-585) | binds | binds
B1 | binds | 

Reference: publication doi:10.1101/2021.02.20.432055
